Data source: PubChem BioAssay AID1259405 (NCATS, 2018)

- Purpose: 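Silenced genes that increase secreted GFP made by CHO cells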 (primary screen)
- System: Chinese hamster CHO-K1 ovary cells with stable secreted eGFP expression
- Reagents: single siRNA against mouse genes, 0.8 pmol siRNA per well (2 µl of 400 nM stock)
- Duration: 3 days
- Read-out: 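Per-well intracellular GFP measured by laser scanning cytometry, plus viability from ATP luminescence, each relative to plate median of non-targeting control wells, in %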
- Scale: GFP, % of control: higher = more GFP per well, higher productivity; viability (ATP), % of control: higher = more viable cells (more ATP)
- Call rule: 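a knock-down is called active if GFP reaches 120% or more of non-targeting control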
In all, the deposit lists about 50,000 reagents; below is an unselected part. About 4,000 of them (8%) count as active. 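Mouse siRNA library applied to hamster cells; one well for each siRNA.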 Reagent sequences are not shown.

How did the screen score Sprr2h [SID363556491]?
GFP, % of control: 62.6; viability (ATP), % of control: 56; Call: inactive

Which result is listed for Sprr2h [SID363586941]?
GFP, % of control: 97.6; viability (ATP), % of control: 111; Call: inactive

What did the screen give for Sprr2h [SID363589049]?
GFP, % of control: 144; viability (ATP), % of control: 124; Call: active

For Cep55 [SID363540800], what was measured?
GFP, % of control: 116; viability (ATP), % of control: 122; Call: inactive

Which result is listed for Cep55 [SID363543251]?
GFP, % of control: 134; viability (ATP), % of control: 119; Call: active

With Cep55 [SID363552744], how do the results read?
GFP, % of control: 51.3; viability (ATP), % of control: 44.3; Call: inactive

Which result is listed for Ubl5 [SID363573127]?
GFP, % of control: 46.5; viability (ATP), % of control: 76.5; Call: inactive

For Ubl5 [SID363577703], how do the results read?
GFP, % of control: 50.5; viability (ATP), % of control: 52.8; Call: inactive

With Ubl5 [SID363581223], what does the deposit list?
GFP, % of control: 46.8; viability (ATP), % of control: 47.4; Call: inactive

What is on record for Cpeb3 [SID363569458]?
GFP, % of control: 74.1; viability (ATP), % of control: 78.4; Call: inactive

What did the screen give for Cpeb3 [SID363577202]?
GFP, % of control: 76.7; viability (ATP), % of control: 89.7; Call: inactive

Which result is listed for Cpeb3 [SID363578610]?
GFP, % of control: 79.7; viability (ATP), % of control: 75.1; Call: inactive

With Gja3 [SID363572609], what was measured?
GFP, % of control: 96.6; viability (ATP), % of control: 94.3; Call: inactive

How did the screen score Gja3 [SID363577889]?
GFP, % of control: 99.1; viability (ATP), % of control: 90.2; Call: inactive

Which result is listed for Gja3 [SID363582113]?
GFP, % of control: 90.6; viability (ATP), % of control: 104; Call: inactive

Which result is listed for Fgf15 [SID363541550]?
GFP, % of control: 65.1; viability (ATP), % of control: 82.8; Call: inactive

With Fgf15 [SID363556177], how do the results read?
GFP, % of control: 33.8; viability (ATP), % of control: 39.3; Call: inactive

For Fgf15 [SID363566466], what does the deposit list?
GFP, % of control: 89.4; viability (ATP), % of control: 69.1; Call: inactive

Looked up above.
Result of Cep55 [SID363540800] in “Call”: inactive
For “Call”, Gja3 [SID363577889] is entered as inactive
Fgf15 [SID363541550], Call = inactive

Next reagents follow:
For Zfp948 [SID363555272], what does the deposit list?
GFP, % of control: 60.1; viability (ATP), % of control: 53.1; Call: inactive

For Zfp948 [SID363563933], what does the deposit list?
GFP, % of control: 42.4; viability (ATP), % of control: 64.6; Call: inactive

With Zfp948 [SID363587479], what does the deposit list?
GFP, % of control: 72.4; viability (ATP), % of control: 71.9; Call: inactive

For Crim1 [SID363581925], what does the deposit list?
GFP, % of control: 108; viability (ATP), % of control: 150; Call: inactive

With Crim1 [SID363589419], what does the deposit list?
GFP, % of control: 173; viability (ATP), % of control: 110; Call: active

Which result is listed for Cysltr1 [SID363571284]?
GFP, % of control: 55.3; viability (ATP), % of control: 78.1; Call: inactive

For Cysltr1 [SID363571636], what does the deposit list?
GFP, % of control: 60.3; viability (ATP), % of control: 81.2; Call: inactive

What did the screen give for Cysltr1 [SID363571988]?
GFP, % of control: 49.9; viability (ATP), % of control: 87.8; Call: inactive

How did the screen score Zfp280d [SID363541040]?
GFP, % of control: 29.8; viability (ATP), % of control: 56.9; Call: inactive

How did the screen score Zfp280d [SID363555667]?
GFP, % of control: 85.7; viability (ATP), % of control: 70.7; Call: inactive

With Zfp280d [SID363565956], how do the results read?
GFP, % of control: 91; viability (ATP), % of control: 77.7; Call: inactive
